PubChem BioAssay AID1224830 | NIAID, 2016
Shown is a random part of about 18,000 reagents tested. Over the whole deposit, about 2,900 (16%) were called active. 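Calls are made per well; low scores hint the gene aids the LPS response, high scores that it dampens it.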 Repeated entries: four replicate wells of each siRNA pool.

- Test: 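Genes whose knock-down alters the TNF-alpha reporter response to LPS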 (primary screen)
- Cell system: human THP-1 monocytic leukaemia cells, TNF dual-luciferase reporter clone, PMA-differentiated to macrophage-like cells
- Knock-down reagent: siRNA pool against human genes, 50 nM
- Timing: LPS for 4 h, given about 3 days after siRNA transfection
- Challenge: bacterial LPS (TLR4 ligand), 10 ng/ml
- Measurement: 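TNF firefly reporter luminescence divided by renilla, normalised to the plate median, then turned into a robust z-score for each replicate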
- Reading the numbers: TNF reporter robust z-score: higher = stronger TNF reporter response to LPS
- Call rule: 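a well is active when its z-score exceeds 2.8 or falls below -1.5; control wells carry no call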

gene knocked down	TNF reporter robust z-score	Call
FUCA2	-0.79	inactive
FUCA2	-0.5	inactive
FUCA2	-1.19	inactive
FUCA2	-0.04	inactive
PHLPP1	0.17	inactive
PHLPP1	-0.44	inactive
PHLPP1	-0.5	inactive
PHLPP1	-0.52	inactive
FAM3A	-0.67	inactive
FAM3A	-0.24	inactive
FAM3A	0.11	inactive
FAM3A	-0.33	inactive
NSD2	-0.61	inactive
NSD2	-0.83	inactive
NSD2	-0.25	inactive
NSD2	0.43	inactive
PM20D1	-1.03	inactive
PM20D1	-0.41	inactive
PM20D1	-0.48	inactive
PM20D1	-0.15	inactive
PTPN2	-0.91	inactive
PTPN2	-1.65	active
PTPN2	-0.75	inactive
PTPN2	0.93	inactive
ST3GAL3	0.43	inactive
ST3GAL3	0.41	inactive
ST3GAL3	0.14	inactive
ST3GAL3	0.88	inactive
ARID4B	-0.71	inactive
ARID4B	0.09	inactive
ARID4B	0.42	inactive
ARID4B	1.02	inactive
GTF3C2	0.71	inactive
GTF3C2	1.73	inactive
GTF3C2	1.55	inactive
GTF3C2	0.66	inactive
NEXMIF	-1.41	inactive
NEXMIF	-1.66	active
NEXMIF	-1.69	active
NEXMIF	-1.39	inactive
DSTN	0.13	inactive
DSTN	-0.5	inactive
DSTN	-0.43	inactive
DSTN	0.06	inactive
ALDH2	-2.55	active
ALDH2	-0.71	inactive
ALDH2	-0.69	inactive
ALDH2	-0.17	inactive
IL2RB	-0.54	inactive
IL2RB	-1.05	inactive
IL2RB	0.23	inactive
IL2RB	0.77	inactive
NSUN6	-0.82	inactive
NSUN6	-0.12	inactive
NSUN6	-1.26	inactive
NSUN6	-1.08	inactive
ERICH6	0.44	inactive
ERICH6	0.12	inactive
ERICH6	1.27	inactive
ERICH6	1.99	inactive
KDM1B	0	inactive
KDM1B	1.29	inactive
KDM1B	-0.25	inactive
KDM1B	1.19	inactive
PCDHB9	2.71	inactive
PCDHB9	0.04	inactive
PCDHB9	-1.01	inactive
PCDHB9	-0.18	inactive
METRNL	-1.12	inactive
METRNL	-1.26	inactive
METRNL	-0.98	inactive
METRNL	-0.65	inactive
OR10Q1	-1.55	active
OR10Q1	-1.68	active
OR10Q1	-1.6	active
OR10Q1	-1.36	inactive
PLAGL2	-1.23	inactive
PLAGL2	-0.95	inactive
PLAGL2	-1.04	inactive
PLAGL2	-0.82	inactive
RPF2	3.15	active
RPF2	1.97	inactive
RPF2	-0.93	inactive
RPF2	0.02	inactive
SF3B6	-1.02	inactive
SF3B6	-1.41	inactive
SF3B6	-1.17	inactive
SLC10A2	-1.5	inactive
SLC10A2	-1.28	inactive
SLC10A2	-1.52	active
SLC10A2	-0.72	inactive
MAGED4B	-1.05	inactive
MAGED4B	-1.36	inactive
MAGED4B	-0.99	inactive
MAGED4B	0.71	inactive
FCRL2	0.15	inactive
FCRL2	0.23	inactive
FCRL2	-0.37	inactive
FCRL2	1.36	inactive
FGFR1OP2	0.45	inactive
FGFR1OP2	0.04	inactive
FGFR1OP2	-1.56	active
FGFR1OP2	-0.8	inactive
GDPD2	0.83	inactive
GDPD2	0.29	inactive
GDPD2	-0.79	inactive
GDPD2	-0.24	inactive
PIGQ	-0.59	inactive
PIGQ	0.51	inactive
PIGQ	0.24	inactive
PIGQ	-0.47	inactive

Called active, of those listed so far:
gene knocked down	TNF reporter robust z-score	Call
PTPN2	-1.65	active
NEXMIF	-1.66	active
NEXMIF	-1.69	active
ALDH2	-2.55	active
OR10Q1	-1.55	active
OR10Q1	-1.68	active
OR10Q1	-1.6	active
RPF2	3.15	active
SLC10A2	-1.52	active
FGFR1OP2	-1.56	active
